Reference: patent publication US20040209954A1, “Compositions and methods for treating body malodor and fungal overgrowth in mammals” (priority 2003, published 2004)
Some of these results come from one statement about several compounds together.

Assays:
[1] = tested on: Pseudomonas; assay: Minimum Inhibitory Concentration (MIC), antibacterial; format: cell-based
[2] = tested on: E. Coli; assay: as above; format: cell-based

With C[N+]1(C)CCCC(OC(=O)C(O)(c2ccccc2)c2ccccc2)C1 (centres unmarked) [Mepenzolate bromide] the MIC [1] was 0.5-1% and the MIC [2] was 0.5-1%.
